Results published in the supplement of paper PMC4635364.
Structures can show the parent of a compound that is named as a salt. Some of the results follow. Repeats in this data set agree poorly, so a single value says little.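 ReNCell VM, a human fetal ventral-midbrain neural progenitor line, was differentiated without mitogens. Blinded raters scored images stained for doublecortin (early neurons) or tyrosine hydroxylase (dopaminergic neurons) against untreated wells (0 = no change). Scores were averaged across repeats and both raters, and compounds averaging 2 or more were selected as hits for retesting.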

Columns and labels:
ReNCell VM [1] = assay: neuronal differentiation score (DCX+ cell fraction vs untreated, manual image score) (score (-3 to 3)); higher = more neuronal differentiation; conditions: 2 uM, 2 weeks
ReNCell VM [2] = assay: dopaminergic neuron differentiation score (TH+ cell fraction vs untreated, manual image score) (score (0 to 3)); higher = more TH+ dopaminergic neuron differentiation; conditions: 2 uM, 4 weeks, BDNF 10 ng/ml + GDNF 10 ng/ml

Clc1ccc(COC(Cn2ccnc2)c2ccc(Cl)cc2Cl)c(Cl)c1 (stereo not given) [Miconazole]
neuronal differentiation score (ReNCell VM [1]; library: Prestwick): inactive: 0 | dopaminergic neuron differentiation score (ReNCell VM [2]; library: Prestwick): active: 3

CC(C)n1c(/C=C/C(O)CC(O)CC(=O)O)c(-c2ccc(F)cc2)c2ccccc21 (stereo not given) [Fluvastatin sodium salt]
neuronal differentiation score (ReNCell VM [1]; library: Prestwick): inactive: 1 | dopaminergic neuron differentiation score (ReNCell VM [2]; library: Prestwick): inactive: 0

C[C@@H]1C[C@H]2[C@@H]3C[C@H](F)C4=CC(=O)C=C[C@]4(C)[C@@]3(Cl)[C@@H](O)C[C@]2(C)[C@H]1C(=O)COC(=O)C(C)(C)C [Clocortolone pivalate]
neuronal differentiation score (ReNCell VM [1]; library: Prestwick): inactive: 0 | dopaminergic neuron differentiation score (ReNCell VM [2]; library: Prestwick): inactive: 0

CCOC(=O)Oc1c(OC)cc(C(=O)O[C@@H]2C[C@@H]3CN4CCc5c([nH]c6cc(OC)ccc56)[C@H]4C[C@@H]3[C@H](C(=O)OC)[C@H]2OC)cc1OC [Syrosingopine]
neuronal differentiation score (ReNCell VM [1]; library: Phytochemical): inactive: 0 | dopaminergic neuron differentiation score (ReNCell VM [2]; library: Phytochemical): inactive: 0

NCC[C@H](O)C(=O)N[C@@H]1C[C@H](N)[C@@H](O[C@H]2O[C@H](CN)[C@@H](O)[C@H](O)[C@H]2O)[C@H](O)[C@H]1O[C@H]1O[C@H](CO)[C@@H](O)[C@H](N)[C@H]1O [Amikacin hydrate]
neuronal differentiation score (ReNCell VM [1]; library: Prestwick): inactive: 0 | dopaminergic neuron differentiation score (ReNCell VM [2]; library: Prestwick): inactive: 0

Cc1ncc(CSSCc2cnc(C)c(O)c2CO)c(CO)c1O
neuronal differentiation score (ReNCell VM [1]; library: Spectrum): inactive: 0 | dopaminergic neuron differentiation score (ReNCell VM [2]; library: Spectrum): inactive: 0

NC(=O)NO
neuronal differentiation score (ReNCell VM [1]; library: Spectrum): inactive: 0 | dopaminergic neuron differentiation score (ReNCell VM [2]; library: Spectrum): inactive: 0

CCCCNc1ccc(C(=O)OCCN(C)C)cc1 [Tetracaine hydrochloride]
neuronal differentiation score (ReNCell VM [1]; library: LOPAC): inactive: 0 | dopaminergic neuron differentiation score (ReNCell VM [2]; library: LOPAC): inactive: 0

NC(=O)c1cccc(N)c1 [3-aminobenzamide]
neuronal differentiation score (ReNCell VM [1]; library: LOPAC): inactive: 0 | dopaminergic neuron differentiation score (ReNCell VM [2]; library: LOPAC): inactive: 0

CC(O)(C(=O)Nc1ccc(S(=O)(=O)c2ccccc2)cc1)C(F)(F)F (stereo not given)
neuronal differentiation score (ReNCell VM [1]; library: Tocriscreen): inactive: 0 | dopaminergic neuron differentiation score (ReNCell VM [2]; library: Tocriscreen): inactive: 0

Cc1cc(O)cc(C)c1Cl
neuronal differentiation score (ReNCell VM [1]; library: Spectrum): inactive: 0 | dopaminergic neuron differentiation score (ReNCell VM [2]; library: Spectrum): inactive: 0

Cc1cccc(C)c1NC(=O)CN1CCN(CCCC(c2ccc(F)cc2)c2ccc(F)cc2)CC1 [Lidoflazine]
neuronal differentiation score (ReNCell VM [1]; library: Prestwick): inactive: 0 | dopaminergic neuron differentiation score (ReNCell VM [2]; library: Prestwick): inactive: 0

CC1=C(CC(=O)O)c2cc(F)ccc2/C1=C\c1ccc([S+](C)[O-])cc1 (stereo not given)
neuronal differentiation score (ReNCell VM [1]; library: Spectrum): inactive: 0 | dopaminergic neuron differentiation score (ReNCell VM [2]; library: Spectrum): inactive: 0

Nc1ncnc2c1nc(Sc1ccc(Cl)cc1)n2C1OC2COP(=O)(O)O[C@@H]2[C@@H]1O (stereo not given in full) [8-(4-Chlorophenylthio)-cAMP sodium]
neuronal differentiation score (ReNCell VM [1]; library: LOPAC): inactive: 0 | dopaminergic neuron differentiation score (ReNCell VM [2]; library: LOPAC): inactive: 0

N[C@@H](Cn1ccc(=O)n(Cc2ccccc2C(=O)O)c1=O)C(=O)O
neuronal differentiation score (ReNCell VM [1]; library: Tocriscreen): inactive: 0 | dopaminergic neuron differentiation score (ReNCell VM [2]; library: Tocriscreen): inactive: 0

Cc1cc(N)c2ccccc2[n+]1CCCCCCCCCC[n+]1c(C)cc(N)c2ccccc21 [Dequalinium dichloride]
neuronal differentiation score (ReNCell VM [1]; library: Prestwick): inactive: 0 | dopaminergic neuron differentiation score (ReNCell VM [2]; library: Prestwick): inactive: 0

O=C(O)c1cccc(C(=O)O)n1 [2,6-Pyridinedicarboxylic Acid]
neuronal differentiation score (ReNCell VM [1]; library: Phytochemical): inactive: 0 | dopaminergic neuron differentiation score (ReNCell VM [2]; library: Phytochemical): inactive: 0

COc1ccc2c(c1)c(CC(=O)O)c(C)n2Cc1ccc(F)cc1 [1-(4-Fluorobenzyl)-5-methoxy-2-methylindole-3-acetic acid]
neuronal differentiation score (ReNCell VM [1]; library: LOPAC): inactive: 0 | dopaminergic neuron differentiation score (ReNCell VM [2]; library: LOPAC): inactive: 0

O=C1CN(/N=C/c2ccc([N+](=O)[O-])o2)C(=O)N1 [Nitrofurantoin]
neuronal differentiation score (ReNCell VM [1]; library: Prestwick): inactive: 0 | dopaminergic neuron differentiation score (ReNCell VM [2]; library: Prestwick): inactive: 0

Fc1ccc([C@@H]2CCNC[C@H]2COc2ccc3c(c2)OCO3)cc1
neuronal differentiation score (ReNCell VM [1]; library: Spectrum): inactive: 0 | dopaminergic neuron differentiation score (ReNCell VM [2]; library: Spectrum): inactive: 0

OCCN1CCN(CCCN2c3ccccc3Sc3ccc(Cl)cc32)CC1
neuronal differentiation score (ReNCell VM [1]; library: Spectrum): inactive: 0 | dopaminergic neuron differentiation score (ReNCell VM [2]; library: Spectrum): inactive: 0

O=C1CN2Cc3c(ccc(Cl)c3Cl)N=C2N1
neuronal differentiation score (ReNCell VM [1]; library: Spectrum): inactive: 0 | dopaminergic neuron differentiation score (ReNCell VM [2]; library: Spectrum): inactive: 0

C[C@H]1C[C@@H]2[C@H]([C@@H](O)C[C@@]3(C)[C@H]2CC[C@]3(O)C(=O)CO)[C@@]2(C)C=CC(=O)C=C12 [Methylprednisolone, 6-alpha]
neuronal differentiation score (ReNCell VM [1]; library: Prestwick): inactive: 0 | dopaminergic neuron differentiation score (ReNCell VM [2]; library: Prestwick): inactive: 0

C=CCN1CCCC1CNC(=O)c1cc2nn[nH]c2cc1OC (stereo not given) [Alizapride HCl]
neuronal differentiation score (ReNCell VM [1]; library: Prestwick): inactive: 0 | dopaminergic neuron differentiation score (ReNCell VM [2]; library: Prestwick): inactive: 0

CCN(CC)CC#CCOC(=O)C(O)(c1ccccc1)C1CCCCC1 (stereo not given) [Oxybutynin chloride]
neuronal differentiation score (ReNCell VM [1]; library: Prestwick): inactive: 0 | dopaminergic neuron differentiation score (ReNCell VM [2]; library: Prestwick): inactive: 0

COc1cc2nc3occc3c(OC)c2cc1OC [Kokusaginine]
neuronal differentiation score (ReNCell VM [1]; library: Phytochemical): inactive: 0 | dopaminergic neuron differentiation score (ReNCell VM [2]; library: Phytochemical): inactive: 0

CC(=O)NCCCS(=O)(=O)O
neuronal differentiation score (ReNCell VM [1]; library: Spectrum): inactive: 0 | dopaminergic neuron differentiation score (ReNCell VM [2]; library: Spectrum): inactive: 0

CC(CN(C)C)CN1c2ccccc2Sc2ccccc21 (stereo not given)
neuronal differentiation score (ReNCell VM [1]; library: Spectrum): inactive: 0 | dopaminergic neuron differentiation score (ReNCell VM [2]; library: Spectrum): inactive: 0

Nc1ccc2c3c(cccc13)C(=O)NC2=O [4-Amino-1,8-naphthalimide]
neuronal differentiation score (ReNCell VM [1]; library: LOPAC): inactive: 0 | dopaminergic neuron differentiation score (ReNCell VM [2]; library: LOPAC): inactive: 0

O=NN(CCCl)C(=O)NCCCl [Carmustine]
neuronal differentiation score (ReNCell VM [1]; library: LOPAC): inactive: 0 | dopaminergic neuron differentiation score (ReNCell VM [2]; library: LOPAC): inactive: 0
